Test results from patent publication US20230190717A1, “P38 GAMMA INHIBITORS AND METHOD OF USE THEREOF” (City of Hope, priority 2017, published 2023).

Tested on: Hut78 cells
Assay: CellTiterGlo cell viability, Hut78
Type: cell-based
Conditions: Homo sapiens, HuT78, 72 h
Experimental: IC50 values were determined using […] software (Biosoft).

Work on O=C(CCCCCCC(=O)Nc1ccccc1)NO [SAHA, Vorinostat] yielded an IC50 of 97 nM.
